The text below walks through data of patent publication US5830994A (Institut Europeen De Biologie Cellulaire, priority 1993, dated 1998).

This data set can be described thus: general procedure: Fmoc solid-phase peptide synthesis; MBHA resin. Particulars: whole synthesis.

For the substance “[(DL) Lip] Glu - His - D.homoPhe - Arg - Trp - Gly - NH2”, the crude yield stood at 78%. Also, for the setting “HPLC”, the “crude HPLC purity” value is 82%.
